Experimental findings from PubChem BioAssay AID662 (National Center for Advancing Translational Sciences (NCATS), 2007) are described below.

Molecules are shown by their SMILES. Some of the results follow. These are further read-outs of the screen, such as a control signal, another cell line or another target. No call is given for them. Most of these compounds were active or inconclusive in the main read-out, so they are no random draw. Words in brackets tell the shape of the fitted curve; partial curves, single points and poor fits give uncertain potencies.

A short description of this assay: Cell signaling CRE-BLA (Fsk stim). The conditions noted are these: CHO CRE-bla reporter (cAMP response element driving beta-lactamase), forskolin EC10, beta-lactamase ratio; measured here: 460 nm blue channel. The procedure, abridged:
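Using CellSensor CRE-bla CHO cells in Opti-MEM with 0.5% dialyzed FBS, compounds were titrated with EC10 NKH 477 for 3 h at 37 °C. CCF4 ratio (460/530 nm) gave %Activity; AC50 derived.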
As usually defined, the AC50 is the concentration giving half of the maximal activity seen. `CS(=O)(=O)c1ncc(Cl)c(C(=O)Nc2ccc(N3CCOCC3)cc2)n1`: the AC50 was 2.51 µM [falling, full curve].
On to `COc1ccc(NS(=O)(=O)c2cc(OC)ccc2NC(=O)c2cc(C)oc2C)cc1`, for which the half-maximal activity concentration (AC50) was 25.1 µM [rising, single point].
Then `C=CCn1c(SCCCCCC)nc(O)cc1=O`, with 6.31 µM [rising, partial curve]; and `COc1ccc(COC(=O)C2=C(C)NC(=O)NC2c2ccc(O)c(OC)c2)cc1` (stereo not drawn), with 5.01 µM [rising, single point]; and `COc1ccc(C2=Nn3c(nnc3-c3ccccc3OC)SC2)cc1OC`, with 0.501 µM [rising, full curve].
As for `CCOC(=O)C1CCCN(C(=O)Cn2nc(CC)n3c(cc4sccc43)c2=O)C1` (stereo not drawn), the AC50 is 12.6 µM [rising, single point].
For `O=c1c(Cc2ccccc2O)c(O)nc2n1CCCS2`, the AC50 was 6.31 µM [falling, partial curve].
Then `O=C(NC1CCS(=O)(=O)C1)c1ccc(-c2ccc(Br)cc2)o1` (stereo not drawn), with 10 µM [rising, single point].
Consider `CCn1c(C)nc2c(=O)oc3ccccc3c21`, for which the AC50 was 10 µM [rising, partial curve].
For `CC1CCCC(NC(=O)CC2Nc3ccccc3NC2=O)C1C` (stereo not drawn) the value was 15.8 µM [rising, single point].
`O=S(=O)(c1ccc(Oc2ncnc3scc(-c4ccccc4)c23)cc1)N1CCOCC1`: the half-maximal activity concentration (AC50) is 2.51 µM [rising, single point].
Regarding `CC(C)(C)c1ccccc1OCC(=O)NCCC(=O)O`, the AC50 was 3.98 µM [falling, single point].
Turning to `Cc1oc(-c2cc(Cl)ccc2Cl)cc1-c1nn2c(C)nnc2s1`, the concentration at half-maximal activity (AC50) is 0.00398 µM [falling, full curve].
As to `Cn1c(=O)c(C(=O)Nc2ncccc2O)c(O)c2ccccc21`, the AC50 is 3.98 µM [falling, single point].
For `O=c1c(-c2ccc(Cl)cc2)nc2cnc(Oc3ccccc3)nc2n1C1CC1`, the AC50 was 15.8 µM [rising, partial curve].
Take `CN(C)c1ncc2nc(-c3ccc(Cl)cc3)c(=O)n(C)c2n1`: the half-maximal activity concentration (AC50) was 2.51 µM [rising, partial curve].
Regarding `COc1cc2c(cc1OC)CN(C(=O)C(C)(C)C)CC2`, the AC50 is 10 µM [rising, single point].
Then `CC1=C(C#N)C(c2cn(-c3ccccc3)nc2-c2cccs2)C(C#N)=C(C)N1`, with 3.98 µM [falling, partial curve]; and `CC(C)CCn1c(CN2CCN(C(=O)c3ccco3)CC2)nc2c1c(=O)n(C)c(=O)n2C`, with 15.8 µM [rising, partial curve]; and `C=CCOC(=O)C1=C(C)N=C2SCCC(=O)N2C1c1cccs1` (stereo not drawn), with 20 µM [rising, single point].
For the molecule `Cn1c(C(=O)Nc2ccc3c(c2)OCCO3)cc2sccc21`, the AC50 was 25.1 µM [falling, single point].
For `O=c1c(-c2cc(F)cc(F)c2)nc2cncnc2n1Cc1ccccc1Cl` the value was 10 µM [rising, partial curve]; for `CCOc1ccccc1NC(=O)c1cccc2c1C(=O)N(CCOC)C2`, 10 µM [rising, single point]; for `Cc1cc(Nc2cccc(F)c2)n2ncnc2n1`, 12.6 µM [rising, single point].
With `COc1ccc(-c2cc(C(=O)O)c(C)o2)cc1OC`, the half-maximal activity concentration (AC50) was 12.6 µM [rising, single point].
For `COc1cccc(-c2nnc(Nc3nc4c(F)cccc4s3)o2)c1` the value was 1 µM [rising, single point]; for `N#CCc1c(C#N)c(N)nc(N2CCN(S(=O)(=O)c3ccccc3)CC2)c1C#N`, 12.6 µM [rising, partial curve].
Take `N/C(CSc1nc(-c2ccccc2)c(-c2ccccc2)o1)=N\O`: the concentration at half-maximal activity (AC50) is 12.6 µM [rising, partial curve].
Consider `CCOC(=O)C1CCCN(C(=O)c2cnn3c(C(F)(F)F)cc(-c4ccccc4)nc23)C1` (stereo not drawn), for which the half-maximal activity concentration (AC50) is 15.8 µM [rising, single point].
Then `CC(=O)Nc1cc(C(=O)O)ccc1S(=O)(=O)c1ccc(C)cc1`, with 5.01 µM [falling, single point].
Consider `CC(C)(C)c1cc(C(=O)O)c(CN2CCCCC2)o1`, for which the concentration at half-maximal activity (AC50) was 0.01 µM [falling, partial curve, poor fit].
With `CCOc1ccc2c(c1)N(C(=O)CN1C(=O)CCC1=O)C(C)(C)C=C2C`, the concentration at half-maximal activity (AC50) is 25.1 µM [falling, single point].
`COc1ccc(NC(=O)C2CCCN2S(=O)(=O)c2ccc3c(c2)CCC(=O)N3)cc1Cl` (stereo not drawn): the AC50 is 12.6 µM [rising, single point].
Then `CNC(=O)c1cc2c(=O)n3cccc(C)c3nc2n(C(C)C)c1=N`, with 10 µM [rising, partial curve].
Then `Cc1nnc(NC(=O)c2ccc3ccccc3c2)o1`, with 3.16 µM [rising, single point].
Then `Cc1noc(C)c1-c1ccc2ncnc(NC3CC3)c2c1`, with 3.98 µM [rising, full curve].
`Cc1cc2c(c(=O)n1C)C(Cc1ccccc1)C(C#N)=C(N)O2` (stereo not drawn): the AC50 is 12.6 µM [rising, partial curve].
For `CCCSc1nnc(Cc2cc(=O)[nH]c(=O)[nH]2)n1-c1cc(C)ccc1C` the value was 5.01 µM [falling, single point]; for `CCN1C(=O)c2ccccc2S(=O)c2ccc(C(=O)NCCCN3CCCC3=O)cc21` (stereo not drawn), 25.1 µM [rising, single point].
For `Cc1nc2nc(C)c(CCC(=O)NCCC3=CCCCC3)c(C)n2n1` the value was 3.98 µM [falling, single point].
Take `O=C(CSc1nc2ccccc2c(=O)n1NC(=O)Cc1ccccc1)NCc1ccco1`: the concentration at half-maximal activity (AC50) was 12.6 µM [falling, single point].
On to `Cc1nc(NCC2CCCO2)c2oc3ccccc3c2n1` (stereo not drawn), for which the AC50 was 10 µM [rising, single point].
In the case of `COc1ccc(N=c2oc3c(OC)cccc3cc2C(=O)NCc2ccco2)cc1OC`, the AC50 was 6.31 µM [rising, partial curve].
For `Cc1cc(C)n(CC(=O)NCc2cc(-c3nn(C)c(=O)c4ccccc34)ccc2C)n1` the value was 25.1 µM [rising, single point]; for `CCOc1ccc(-n2cc(C(=O)N3CCCCCC3)c3cc(OC)c(OC)cc3c2=O)cc1`, 10 µM [rising, single point]; for `CCOc1ccc2nc(NC(=O)CSc3nc4c(c(=O)n(C)c(=O)n4C)n3C(C)C)sc2c1`, 3.16 µM [rising, full curve].
Consider `CCOc1ccc(-c2n[nH]c(C)c2Oc2ccccc2OC)c(O)c1`, for which the concentration at half-maximal activity (AC50) is 3.16 µM [falling, partial curve].
Then `CCOC(=O)c1cc(NC(=O)Nc2ccc(OC)c(OC)c2)c(C)nc1C`, with 10 µM [rising, single point].
As to `Cc1nc2cc(C(F)(F)F)ccc2n1C1CCN(CC(=O)NC(C)(C)C)CC1`, the concentration at half-maximal activity (AC50) was 10 µM [rising, single point].
With `COc1ccccc1N1CCN(C(=O)c2ccccc2Oc2ccccc2)CC1`, the AC50 is 6.31 µM [rising, partial curve, poor fit].
Regarding `CCCCNC(=O)c1ccc2nc(-c3ccco3)c(-c3ccco3)nc2c1`, the concentration at half-maximal activity (AC50) was 12.6 µM [rising, partial curve].
For the molecule `O=c1cnc2cnc(N3CCOCC3)nc2n1Cc1cccs1`, the concentration at half-maximal activity (AC50) is 20 µM [rising, partial curve].
For `Cc1nc2cnc(N(C)C)nc2n(Cc2cccs2)c1=O` the value was 12.6 µM [rising, partial curve]; for `CC1=C(C(=O)OCc2ccc3c(c2)OCO3)C(c2ccc(Cl)cc2)NC(=O)N1` (stereo not drawn), 0.0794 µM [falling, full curve].
Then `CCN(CC)CCn1c2ccccc2c2nc(C)sc21`, with 10 µM [rising, single point]; and `C[N+]1(C)CCC(OC(=O)C(c2ccccc2)c2ccccc2)CC1`, with 12.6 µM [falling, single point]; and `CC(C)C(NC(=O)C1CCCCC1)C(=O)NCc1ccccn1` (stereo not drawn), with 0.00398 µM [falling, full curve, poor fit].
Then `COc1cccc(-c2nc(NCCc3c[nH]c4ccc(OC)cc34)c3ccccc3n2)c1`, with 1 µM [falling, single point]; and `c1cncc(-c2nn[nH]n2)c1`, with 12.6 µM [rising, single point].
For `O=C(Nc1nnc(C2CC2)s1)C1Cc2ccccc2CN1S(=O)(=O)c1cccs1` (stereo not drawn), the AC50 was 0.316 µM [falling, full curve, poor fit].
As to `COc1ccc(-c2noc(CCCOc3ccccc3)n2)cc1OC`, the AC50 is 10 µM [rising, single point].
For the molecule `CC(=O)Oc1ccccc1C(=O)Nc1ncc([N+](=O)[O-])s1`, the AC50 is 3.16 µM [falling, full curve].
In the case of `Cc1[nH]ccc2c1[nH]c1cc(=O)ccc12`, the concentration at half-maximal activity (AC50) is 25.1 µM [falling, single point].
For `CC(=O)C1=C(C)NC(SCC(=O)c2ccc(Cl)cc2)=C(C#N)C1c1ccco1` (stereo not drawn), the AC50 is 5.01 µM [rising, partial curve].
As to `Cc1nn(C)cc1CN(C)C(=O)c1cc2nc(-c3ccco3)cc(C(F)(F)F)n2n1`, the AC50 is 12.6 µM [rising, partial curve].
Then `NC(=O)c1oc2ccccc2c1NC(=O)c1ccco1`, with 1.58 µM [rising, full curve, poor fit].
For the molecule `Oc1cc(O)c2c(c1)O[C@H](c1ccc(O)c(O)c1)[C@@H](O)C2`, the AC50 was 31.6 µM [falling, single point].
For `Cc1ccccc1OCC(O)Cn1c(SC(C)C)nc2c1c(=O)[nH]c(=O)n2C` (stereo not drawn) the value was 10 µM [rising, partial curve].
